Source: PubChem BioAssay AID1259405 (NCATS, 2018)
This is a random part of about 50,000 reagents. Of all reagents, about 4,000 (8%) were called active. 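Mouse siRNA library applied to hamster cells; one well for each siRNA.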 Reagents against one gene are numbered here.

Screen: 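Mouse-designed siRNAs used to find CHO productivity engineering targets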 (primary screen)
Cells: Chinese hamster CHO-K1 ovary cells with stable secreted eGFP expression
Knock-down reagent: single siRNA against mouse genes, 0.8 pmol siRNA per well (2 µl of 400 nM stock)
Timing: 3 days
Measured: 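Percent of the per-plate non-targeting control median for intracellular GFP per well by laser scanning cytometry and for cell viability by ATP luminescence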
Direction: GFP, % of control: higher = more GFP per well, higher productivity; viability (ATP), % of control: higher = more viable cells (more ATP)
Call rule: 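a knock-down is called active if GFP reaches 120% or more of non-targeting control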

Gene | reagent no. | GFP, % of control | viability (ATP), % of control | outcome
Cish (GeneID 12700) | 1 | 78.1 | 89 | inactive
Cish (GeneID 12700) | 2 | 71.2 | 95.5 | inactive
Cish (GeneID 12700) | 3 | 98.4 | 125 | inactive
Eif2a (GeneID 229317) | 1 | 92.5 | 78.9 | inactive
Eif2a (GeneID 229317) | 2 | 94 | 111 | inactive
Eif2a (GeneID 229317) | 3 | 93.1 | 115 | inactive
Gfra1 (GeneID 14585) | 1 | 58.7 | 69.1 | inactive
Gfra1 (GeneID 14585) | 2 | 86.3 | 72.1 | inactive
Gfra1 (GeneID 14585) | 3 | 60.3 | 48.6 | inactive
Ncbp2 (GeneID 68092) | 1 | 76.5 | 72 | inactive
Ncbp2 (GeneID 68092) | 2 | 77.4 | 64.5 | inactive
Ncbp2 (GeneID 68092) | 3 | 64.4 | 57.1 | inactive
Zfp92 (GeneID 22754) | 1 | 75.8 | 53 | inactive
Zfp92 (GeneID 22754) | 2 | 106 | 98.5 | inactive
Zfp92 (GeneID 22754) | 3 | 86.4 | 88.7 | inactive
Nvl (GeneID 67459) | 1 | 92.8 | 99.2 | inactive
Nvl (GeneID 67459) | 2 | 165 | 110 | active
Cdkn2c (GeneID 12580) | 1 | 92.8 | 104 | inactive
Cdkn2c (GeneID 12580) | 2 | 43.3 | 61.2 | inactive
Slc22a7 (GeneID 108114) | 1 | 83.4 | 84.6 | inactive
Slc22a7 (GeneID 108114) | 2 | 55.3 | 47.4 | inactive
Slc22a7 (GeneID 108114) | 3 | 48.2 | 65.1 | inactive
Asic4 (GeneID 241118) | 1 | 89.1 | 127 | inactive
Asic4 (GeneID 241118) | 2 | 36.7 | 60.7 | inactive
Asic4 (GeneID 241118) | 3 | 73.5 | 84 | inactive
Magohb (GeneID 66441) | 1 | 112 | 100 | inactive
Magohb (GeneID 66441) | 2 | 159 | 127 | active
Magohb (GeneID 66441) | 3 | 90.5 | 103 | inactive
Pxmp4 (GeneID 59038) | 1 | 125 | 87.4 | active
Pxmp4 (GeneID 59038) | 2 | 45.7 | 71.2 | inactive
Pxmp4 (GeneID 59038) | 3 | 56.6 | 78.4 | inactive
Selplg (GeneID 20345) | 1 | 31.2 | 38.5 | inactive
Selplg (GeneID 20345) | 2 | 61.4 | 99.8 | inactive
Selplg (GeneID 20345) | 3 | 156 | 76.1 | active

Entries listed above called active:
Gene | reagent no. | GFP, % of control | viability (ATP), % of control | outcome
Nvl (GeneID 67459) | 2 | 165 | 110 | active
Magohb (GeneID 66441) | 2 | 159 | 127 | active
Pxmp4 (GeneID 59038) | 1 | 125 | 87.4 | active
Selplg (GeneID 20345) | 3 | 156 | 76.1 | active
